Data: US20120040898A1, “PHARMACEUTICAL COMPOSITIONS” (TAISHO PHARMACEUTICAL CO., LTD, priority 2009, published 2012)

Tested on: high-fat diet loaded mice with STZ-induced diabetes mellitus
Test: Combination treatment of compound A and glipizide in diabetic mice
Type: in vivo
Details: high-fat diet STZ diabetic ICR mice, non-fasting; single oral dose compound A 1 mg/kg, glipizide 10 mg/kg, alone or combined; up to 8 hours; mean ± standard error
Description: After 3 weeks a high-fat diet (D12492 of Research Diets, Inc.) feeding, ICR mice (CHARLES RIVER LABORATORIES JAPAN, INC.) were intraperitoneally administered streptozocin (SIGMA-ALDRICH JAPAN K.K.; hereinafter abbreviated as STZ) to induce diabetes. […] SIGMA-ALDRICH JAPAN K.K.), either alone or in combination. Blood was taken from the tail vein of each mouse at specified time intervals and plasma glucose levels were measured by GOD colorimetry with a self-testing glucose measuring instrument (Medisafe Mini GR-102; TERUMO CORPORATION, Japan).

Cc1cnc(C(=O)NCCc2ccc(S(=O)(=O)NC(=O)NC3CCCCC3)cc2)cn1 [Glipizide, glipizide]
Δ plasma glucose AUC: -222.3 ± 103.2 mg·h/dL
